This assay deals with T1, 3xHA-TurboID-MARCHF8 fusion protein (human) (UniProt Q5T0T0).
T1 sequence: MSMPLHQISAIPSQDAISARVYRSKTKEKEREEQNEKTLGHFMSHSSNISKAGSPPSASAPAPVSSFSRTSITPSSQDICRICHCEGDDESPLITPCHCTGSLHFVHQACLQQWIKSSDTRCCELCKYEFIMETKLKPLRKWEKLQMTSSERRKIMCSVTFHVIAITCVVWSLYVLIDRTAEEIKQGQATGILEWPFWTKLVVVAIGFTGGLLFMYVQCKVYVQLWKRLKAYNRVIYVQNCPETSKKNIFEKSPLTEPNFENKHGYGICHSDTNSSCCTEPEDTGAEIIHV
The assay can be described thus: proximity labelling.

Chains of the proteins cited; added tags and fusions are not shown. Residues count along the entry.
UniProt P16070, residues 21-742: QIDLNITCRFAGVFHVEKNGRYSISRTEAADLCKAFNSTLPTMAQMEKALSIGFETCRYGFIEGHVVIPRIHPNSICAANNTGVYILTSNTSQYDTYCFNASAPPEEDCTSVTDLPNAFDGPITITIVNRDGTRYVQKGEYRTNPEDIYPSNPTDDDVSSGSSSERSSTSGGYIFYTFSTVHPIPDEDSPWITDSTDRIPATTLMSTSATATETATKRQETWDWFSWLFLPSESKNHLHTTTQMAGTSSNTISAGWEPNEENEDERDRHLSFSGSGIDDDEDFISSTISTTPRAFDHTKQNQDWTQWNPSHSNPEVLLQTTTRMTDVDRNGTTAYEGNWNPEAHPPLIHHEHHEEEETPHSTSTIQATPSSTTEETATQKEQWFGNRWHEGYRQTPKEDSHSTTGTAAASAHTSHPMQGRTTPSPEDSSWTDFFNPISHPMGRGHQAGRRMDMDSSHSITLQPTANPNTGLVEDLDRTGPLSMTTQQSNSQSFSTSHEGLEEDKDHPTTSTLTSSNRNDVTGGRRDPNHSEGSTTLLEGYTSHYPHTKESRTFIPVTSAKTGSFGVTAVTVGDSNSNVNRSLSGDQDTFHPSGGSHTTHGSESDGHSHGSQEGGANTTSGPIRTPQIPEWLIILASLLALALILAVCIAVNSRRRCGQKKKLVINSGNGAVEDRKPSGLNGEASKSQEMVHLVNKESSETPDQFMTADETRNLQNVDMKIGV
UniProt O00220, residues 24-468: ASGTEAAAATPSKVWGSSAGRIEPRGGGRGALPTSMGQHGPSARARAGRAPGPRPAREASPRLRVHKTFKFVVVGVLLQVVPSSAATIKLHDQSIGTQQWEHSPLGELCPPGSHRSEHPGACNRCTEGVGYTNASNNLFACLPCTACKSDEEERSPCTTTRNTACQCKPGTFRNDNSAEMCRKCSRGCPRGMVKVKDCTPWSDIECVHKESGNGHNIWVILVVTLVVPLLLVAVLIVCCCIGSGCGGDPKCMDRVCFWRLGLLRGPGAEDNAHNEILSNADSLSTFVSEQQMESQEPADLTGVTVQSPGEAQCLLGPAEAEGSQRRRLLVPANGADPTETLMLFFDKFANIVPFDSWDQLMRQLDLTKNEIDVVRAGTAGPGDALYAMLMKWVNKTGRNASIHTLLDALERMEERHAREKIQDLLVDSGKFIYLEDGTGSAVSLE

No constants are given. Whether binding was seen depends on the method and setting. In cells and extracts the contact can be indirect. These calls come from enrichment with a bait or labelling near it, and not all partners need be listed. Where a sequence is shown, tags or fusion partners need not be part of it.

Among the data in doi:10.1101/2024.11.29.626106 are binding values, retold here.

For the substance “CD44 (from UniProt P16070 21-742) (receptor)”, the binding entry was “binds”.
The value for “TNF-related apoptosis-inducing ligand receptor 1 (TRAIL-R1) (from UniProt O00220 24-468)” was “binds”; that for CDH1 was “binds”.
